Read-outs that look alike come from different tables or passages of the source. Part of at least one peptide drawing is inferred or uncertain, most often the ends. No end group written: not given here.
What was measured:
[1] = test system: peripheral human lymphocytes; assay type: cell-based
Description: (§1) The immunological test methods used were the E-rosette test according to Wara, Ammann et al. (N.Y. Acad. Sci. 249 (1975) 308 and N. Engl. J. Med. 292 (1975) 70) and the method of mixed lymphocyte culture, both methods involving additional inhibition of cellular RNS polymerase by alpha-amanitin. The E-rosette test is based on the fact that the percentage of E-rosette forming cells in peripheral human blood is a measure of the content of fully mature T-cells, which form with sheep's red blood cells characteristic aggregates which can be counted under the microscope.
For the performance of the E-rosette test, peripheral human lymphocytes are isolated by a gradient centrifugation. Their RNS polymerase is blocked by alpha-amanitin. […] This value is taken as 100% in a relative numerical scale, and after the Alpha-amanitin blockage it is taken to be 0%; see Table XII.

[2] = test system: human peripheral lymphocytes; assay type: cell-based; settings: 1 μg fragment per ml, not blocked, culture without addition = 0%
Description: as §1
The test in mixed lymophocyte cultures is based on the fact that T-cells are made to proliferate by stimulation with allogenic antigens. For the performance of the test, the lymphocytes of donor A ("responder") are incubated with those of donor B ("stimulator") for 4 to 5 days. Then ^3 H-thymidin is added and the rate of proliferation is measured on the basis of the increasing radioactivity of the cell culture due to the installation of the radioactive material. Since both populations A and B might be made to proliferate, resulting in an unclear effect, population B is blocked with mitomycin C in all metabolical activities. This test is routinely used before organ transplants to determine the immunological compatibility of donor and receiver tissues.

Substance: KEVVE [IV]
- E-rosette number (%) ([1]; cells blocked with α-amanitin = 0%, normal level without any addition = 100%, at optimum concentration): 45%
- Optimum concentr. ([1]; concentration giving the stated E-rosette number): 83 μm
- stimulation (+) / inhibition (-) of mixed lymphocyte culture ([2]; cell pair AB): -53%
- stimulation (+) / inhibition (-) of mixed lymphocyte culture ([2]; cell pair CD): +37%
- stimulation (+) / inhibition (-) of mixed lymphocyte culture ([2]; cell pair DC): +2%

— patent US4910296A, “Medicaments containing alpha 1 thymosin fragments and having an immunostimulant action, and fragments of alpha 1 thymosin” (priority 1980, dated 1990)
